The test can be described thus: qHTS Assay for Lipid Storage Modulators in Drosophila S3 Cells.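 On cell number change: cells counted by Cell Tracker Red CMTPX staining in the red channel.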 Conditions: BODIPY lipid droplet fluorescence, 18-24 h; for cell number change: measured here: cell count max response, cells fed with added oleic acid. An outline of the steps: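 Drosophila S3 cells got compounds at several concentrations plus oleic acid (400 uM solution). Laser-scanning cytometry with 488 nm excitation read lipid droplets at 500-530 nm and cells at 575-640 nm. Percent activity was relative to 20 uM Triacsin C.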

The mark [1] stands for this setting: measured here: lipid fluorescence (Fed channel) AC50, cells fed with added oleic acid.
Setting [2] is: measured here: cell number channel AC50, cells fed with added oleic acid.

The list shows a part of the results. Shown are side measurements of this screen, not its main read-out; they come without a call. Compounds called inactive in the main read-out are mostly missing here. Words in brackets tell the shape of the fitted curve; partial curves, single points and poor fits give uncertain potencies.

Take `CCOCCCNC(=O)C(NC(=O)c1ccc(NC(C)=O)cc1)c1ccc(C)cc1` (centres undefined): the AC50 under setting [1] is 2.06 µM [rising, single point].

As for `CC(=O)Nc1cccc(/C(C)=N\NC(=O)c2ccc(Cn3nc([N+](=O)[O-])c(Cl)c3C)o2)c1`, the cell number change was 17.8%. The AC50 under setting [1] was 7.31 µM [rising, partial curve].

With `O=C(COC(=O)/C=C/c1cc(Br)ccc1F)Nc1ccc2[nH]c(=O)[nH]c2c1`, the cell number change is -50.6%. Further, the half-maximal activity concentration (AC50) under setting [2] was 23.1 µM [falling, partial curve, poor fit]. Further, under setting [1], the AC50 is 13 µM [falling, partial curve, poor fit].

For `COc1ccc(CCNC(=O)C(C)Sc2ccc(C)cc2)cc1OC` (centres undefined), the cell number change was -0.247%. The AC50 under setting [1] is 14.6 µM [falling, partial curve, poor fit].

As for `COc1ccccc1C(CNC(=O)c1cccc(NS(=O)(=O)c2ccc(Br)cc2)c1)N(C)C` (centres undefined), the AC50 under setting [1] was 6.51 µM [falling, single point].

As to `Oc1ccc(C[C@@H]2CNCCN2CCCCC2CCCCC2)cc1`, the cell number change is -30.2%. Moreover, under setting [2], the AC50 is 16.4 µM [falling, single point].

Regarding `CC(/C=C1\SC(=S)N(NS(=O)(=O)c2ccc(C)cc2)C1=O)=C\c1ccccc1`, the cell number change was -7.35%. Also, the half-maximal activity concentration (AC50) under setting [2] was 0.146 µM [falling, full curve, poor fit].

Turning to `CSc1[nH]c(=O)c(C(=O)O)cc1C#N`, the cell number change was -3.81%. For the same compound, under setting [1], the AC50 was 3.26 µM [falling, single point].

Take `S=c1[nH]nc(-c2ccco2)n1-c1cccc2ccccc12`: the cell number change was -61.4%. In addition, the AC50 under setting [2] was 29.1 µM [falling, single point].

Regarding `COc1ccccc1-n1c(SCC(=O)N(C)C2CCS(=O)(=O)C2)nc2ccccc2c1=O` (centres undefined), the cell number change is -4.09%.

Consider `CC1CCCC(C)N1C(=O)c1ccc(CS(=O)(=O)c2ccccc2)cc1` (centres undefined), for which the cell number change is -23.5%. Further, the concentration at half-maximal activity (AC50) under setting [1] was 25.9 µM [falling, single point].

As to `CN(CCc1cnn(C)c1)Cc1nc(CC2CC2)no1`, the concentration at half-maximal activity (AC50) under setting [1] was 0.731 µM [rising, partial curve, poor fit].

For the compound `O=c1oc2cccnc2n1CCS(=O)(=O)c1ccc(F)cc1`, the cell number change was -6.01%.

As to `O=C(NC1CCCC1)C(c1ccsc1)N(C(=O)Cc1cccs1)c1ccccc1` (centres undefined), the AC50 under setting [1] is 6.51 µM [falling, single point].

Regarding `COc1ccc(N2CCN(C(=O)c3cc(C)oc3C)CC2)cc1`, the cell number change came out at 19.4%. Besides, the concentration at half-maximal activity (AC50) under setting [1] is 14.6 µM [rising, partial curve].

Consider `CC1(C)CC(=O)c2sc(NC(=O)CN3C(=O)CCC3=O)nc2C1`, for which the cell number change is -78.4%. Also, the AC50 under setting [2] is 16.4 µM [falling, single point]. For the same compound, the AC50 under setting [1] is 29.1 µM [falling, single point].

`N#Cc1cccc(CN2CCC(=O)N([C@H](CO)c3ccccc3)CC2)c1`: the cell number change was 1.29%.

As for `O=C1c2ccccc2NC(c2ccc(-c3cccc([N+](=O)[O-])c3)o2)N1O` (centres undefined), the cell number change came to 2.5%. For the same compound, the AC50 under setting [1] was 6.51 µM [falling, single point].

On to `CN(C)S(=O)(=O)c1cccc(NC(=O)c2ccccc2OCc2ccc(F)cc2)c1`, for which the cell number change turned out to be 342%. Under setting [2], the AC50 is 29.1 µM [rising, single point]. For the same compound, the AC50 under setting [1] was 35.5 µM [falling, partial curve].

As for `O=C(CSc1ccc2c(c1)OCCO2)N1CCN(c2ccccc2O)CC1`, the cell number change amounted to 38.5%. The AC50 under setting [2] was 3.26 µM [rising, partial curve, poor fit].

Turning to `CCOC(=O)c1cnn(-c2ccccc2)c1-c1ccccc1`, the AC50 under setting [1] was 1.84 µM [falling, partial curve].

Regarding `COc1cc(C(=O)NCC(=O)N/N=C/c2cccnc2)cc(OC)c1OC`, the cell number change was -2.38%. The half-maximal activity concentration (AC50) under setting [1] is 0.58 µM [falling, single point].

In the case of `Cc1cc(NC(=O)CSc2ccc3nnc(-c4ccc(Cl)cc4)n3n2)no1`, the cell number change is -10.1%. Under setting [1], the AC50 is 0.0651 µM [rising, full curve, poor fit].

On to `Cc1nc(SCc2ccccc2F)c2oc3ccccc3c2n1`, for which the cell number change stood at 21.4%. In addition, the concentration at half-maximal activity (AC50) under setting [1] was 1.84 µM [rising, partial curve, poor fit].

Consider `COc1ccc(CNS(=O)(=O)c2ccc(-n3cnnn3)c(OC)c2)cc1`, for which the cell number change was 11.8%. Besides, the AC50 under setting [1] was 0.206 µM [falling, single point].

As for `COc1ccc(-c2noc(CN(C(=O)c3ccc4c(c3)OCO4)C(C)C)n2)cc1OC`, the cell number change is 100%. Moreover, the AC50 under setting [2] is 11.6 µM [rising, partial curve].

Take `CSc1nc2ccsc2c(=O)n1-c1ccccn1`: the cell number change was -15%. Moreover, under setting [1], the half-maximal activity concentration (AC50) is 0.00517 µM [falling, full curve, poor fit].

Consider `CC(NC(=O)c1ccccc1)C(=O)OCC(=O)c1ccc(Br)cc1` (centres undefined), for which the cell number change was 24.5%. The concentration at half-maximal activity (AC50) under setting [1] is 29.1 µM [rising, single point].

`Cc1cc(C)cc(N(C(C)C(=O)NCCC2=CCCCC2)S(C)(=O)=O)c1` (centres undefined): the cell number change is 25.9%. The AC50 under setting [2] was 0.461 µM [rising, full curve].

Turning to `O=C(Nc1ccccn1)c1ccc(C(=O)Nc2ccccn2)cc1`, the cell number change was -4.12%. Besides, the AC50 under setting [1] is 29.1 µM [falling, single point].

In the case of `COc1cc2c(cc1OC)CN(CC(O)c1ccccc1)CC2` (centres undefined), the cell number change is -14.3%. Further, under setting [1], the AC50 was 29.1 µM [rising, single point].

As for `COc1cccc(CN2CCN(Cc3cc4ccccc4o3)CC2CCO)c1` (centres undefined), the cell number change turned out to be 15%. The concentration at half-maximal activity (AC50) under setting [1] was 29.1 µM [rising, single point].

Take `COC(=O)CCN(C(=O)c1ccc2c(c1)OCO2)c1ccccn1`: the AC50 by setting is: under setting [2], 2.06 µM [rising, single point]; under setting [1], 0.651 µM [rising, full curve, poor fit].

As for `CCOC(=O)c1c(NC(=O)Cn2nnc(-c3ccccc3Cl)n2)sc(C)c1C`, the cell number change is 1.2%. For the same compound, the AC50 under setting [1] is 6.51 µM [rising, single point].

Regarding `CCN(CC)S(=O)(=O)c1cc(NC(=O)CSc2nnc(N)s2)ccc1C`, the cell number change came out at 38.6%. The AC50 under setting [2] was 16.4 µM [rising, partial curve, poor fit]. In addition, the AC50 under setting [1] is 14.6 µM [rising, partial curve].

`COc1cccc(CN2CCC(N(CCc3ccccc3)Cc3ccccc3)CC2)c1OC`: the cell number change is -49.8%. The AC50 under setting [2] is 29.1 µM [falling, single point]. Under setting [1], the AC50 was 13 µM [falling, partial curve].

On to `CCC(=O)N1c2ccccc2NC2=C(C(=O)CCC2)C1c1ccccc1` (centres undefined), for which the cell number change was 32.9%. Moreover, the AC50 under setting [2] was 32.6 µM [rising, single point].

Take `O=C(O)CNC(=O)c1ccc(NC(=O)/C(=C/c2ccccc2)NC(=O)c2ccco2)cc1`: the cell number change is -24.8%. For the same compound, the AC50 under setting [1] was 29.1 µM [rising, single point].

For the compound `CC(=O)N1CCc2cc(C(=O)CN3CCN(c4ccccc4F)CC3)ccc21`, the cell number change was -2.97%. Besides, the AC50 under setting [1] is 29.1 µM [rising, single point].

On to `CCOC(=O)C1=C(COC(=O)CCc2ccc(F)cc2)NC(=O)NC1C` (centres undefined), for which the cell number change is -2.07%. Moreover, the AC50 under setting [1] was 1.84 µM [rising, full curve, poor fit].

With `Cn1c(SCc2nc3ccccc3s2)nnc1-c1ccc2c(c1)OCO2`, the cell number change amounted to 2.63%. Besides, the AC50 under setting [1] is 0.326 µM [rising, full curve, poor fit].

As to `Fc1ccc(/C=N/Nc2nc3ccccc3[nH]2)cc1F`, the cell number change is -16.1%. For the same compound, the AC50 under setting [1] was 9.2 µM [falling, single point].

As for `Cc1ccc(OCCNC(=O)c2cc(C(=O)NCCOc3ccc(C)cc3)cc([N+](=O)[O-])c2)cc1`, the cell number change was -17%. The AC50 under setting [2] is 6.51 µM [rising, single point]. In addition, the AC50 under setting [1] was 6.51 µM [rising, single point].

Consider `CCC(C)NC(=O)C1CCN(C(=O)c2ccccc2)CC1` (centres undefined), for which the cell number change worked out at 44.4%. Also, the concentration at half-maximal activity (AC50) under setting [2] was 0.206 µM [rising, full curve, poor fit]. The AC50 under setting [1] was 0.103 µM [rising, full curve, poor fit].

As to `COc1ccc(NC(=O)Nc2nnc(-c3ccncc3)s2)cc1`, the cell number change came out at 56.8%. In addition, the AC50 under setting [2] is 18.4 µM [rising, single point].

As for `Fc1ccc(F)c(CNc2ncnc3cc(Cl)ccc23)c1`, the cell number change was -45.7%. Further, under setting [2], the AC50 is 29.1 µM [falling, single point]. Also, the AC50 under setting [1] is 29.1 µM [falling, single point].

`O=C(c1sc2ccccc2c1Cl)N1CCN(c2ncccn2)CC1`: the cell number change turned out to be 42.6%. For the same compound, the AC50 under setting [2] was 7.31 µM [rising, partial curve]. The concentration at half-maximal activity (AC50) under setting [1] is 29.1 µM [rising, partial curve, poor fit].

As for `CN(Cc1ccccn1)C(=O)C1CCC(=O)N(CCc2ccc(Cl)cc2)C1` (centres undefined), the cell number change is 31.7%. Also, the AC50 under setting [2] is 29.1 µM [rising, single point].

Take `CCOC(=O)c1sc(N2C(=O)C(O)=C(C(=O)c3ccco3)C2c2ccco2)nc1C` (centres undefined): the cell number change was 19.1%. Further, the AC50 under setting [1] is 6.51 µM [falling, single point].

Regarding `CC1CC(C)CN(C(=O)COC(=O)CNC(=O)C23CC4CC(CC(C4)C2)C3)C1` (centres undefined), the cell number change came out at 5%.

With `Cc1nnc(SCC(=O)NC(=O)NCc2ccco2)s1`, under setting [1], the AC50 was 0.116 µM [falling, full curve].

In the case of `O=C(CCc1nc2ccccc2c(=O)[nH]1)Nc1cc(Cl)ccc1N1CCCC1`, the cell number change was -0.645%. In addition, the AC50 under setting [1] is 6.51 µM [falling, single point].

As to `Cc1ccc(-c2c[n+](CC(=O)Nc3ccc(C)cc3C)c3n2CCC3)cc1`, the cell number change was 31.7%. The AC50 under setting [2] is 0.231 µM [rising, full curve, poor fit]. Besides, the AC50 under setting [1] is 2.06 µM [rising, partial curve, poor fit].

With `CCCCNC(=O)c1ccc2c(c1)C(=O)N(Cc1ccncc1)C2=O`, the cell number change is -1.42%.

Consider `Cc1ccc(O)c(C(=O)CC(=O)c2ccc(Cl)cc2)c1`, for which the cell number change was -61.8%. Also, the AC50 under setting [2] is 29.1 µM [falling, single point]. Besides, under setting [1], the AC50 is 20.6 µM [falling, single point].

With `OC(CON=C1c2ccccc2-c2ccccc21)CN1CCNCC1` (centres undefined), the cell number change is -53%. Besides, the AC50 under setting [2] was 0.164 µM [falling, full curve, poor fit].

Consider `COc1ccc(CCNC(=O)c2cccnc2SC)cc1`, for which the cell number change was 20.7%. In addition, the half-maximal activity concentration (AC50) under setting [1] is 6.51 µM [falling, full curve, poor fit].

As usually defined, the AC50 is the concentration giving half of the maximal activity seen. A high value points to activity only at high concentration.

Source of the values: PubChem BioAssay AID2685 (National Center for Advancing Translational Sciences (NCATS), 2010).
